Measurements reported in the supplement of paper PMC10849652.
The other results are listed elsewhere or left out.

By UniProt entry, the sequences of proteins in these tests, tags left out. Where a name states a change or a piece, a line headed by the entry shows the natural chain unless it says otherwise.
UniProt Q8WVC6: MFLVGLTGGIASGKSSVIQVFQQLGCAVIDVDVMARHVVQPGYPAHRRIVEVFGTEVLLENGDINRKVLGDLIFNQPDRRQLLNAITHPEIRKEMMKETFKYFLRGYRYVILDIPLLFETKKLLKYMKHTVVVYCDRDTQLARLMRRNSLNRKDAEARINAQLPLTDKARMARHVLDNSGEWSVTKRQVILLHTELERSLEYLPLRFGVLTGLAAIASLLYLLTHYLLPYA
UniProt Q6UW02: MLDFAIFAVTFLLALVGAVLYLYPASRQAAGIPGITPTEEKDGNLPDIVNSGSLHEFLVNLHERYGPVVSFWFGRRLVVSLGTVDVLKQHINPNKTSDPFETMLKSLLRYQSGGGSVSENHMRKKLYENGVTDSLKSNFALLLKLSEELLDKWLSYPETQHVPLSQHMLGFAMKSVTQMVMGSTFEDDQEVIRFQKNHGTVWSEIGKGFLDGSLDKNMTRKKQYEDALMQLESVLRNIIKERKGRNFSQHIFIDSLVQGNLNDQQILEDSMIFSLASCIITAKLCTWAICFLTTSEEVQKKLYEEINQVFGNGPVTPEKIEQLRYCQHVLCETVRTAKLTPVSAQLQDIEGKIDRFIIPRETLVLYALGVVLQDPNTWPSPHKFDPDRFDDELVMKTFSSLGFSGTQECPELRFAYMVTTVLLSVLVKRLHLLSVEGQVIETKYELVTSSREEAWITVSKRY
UniProt Q8NCG7: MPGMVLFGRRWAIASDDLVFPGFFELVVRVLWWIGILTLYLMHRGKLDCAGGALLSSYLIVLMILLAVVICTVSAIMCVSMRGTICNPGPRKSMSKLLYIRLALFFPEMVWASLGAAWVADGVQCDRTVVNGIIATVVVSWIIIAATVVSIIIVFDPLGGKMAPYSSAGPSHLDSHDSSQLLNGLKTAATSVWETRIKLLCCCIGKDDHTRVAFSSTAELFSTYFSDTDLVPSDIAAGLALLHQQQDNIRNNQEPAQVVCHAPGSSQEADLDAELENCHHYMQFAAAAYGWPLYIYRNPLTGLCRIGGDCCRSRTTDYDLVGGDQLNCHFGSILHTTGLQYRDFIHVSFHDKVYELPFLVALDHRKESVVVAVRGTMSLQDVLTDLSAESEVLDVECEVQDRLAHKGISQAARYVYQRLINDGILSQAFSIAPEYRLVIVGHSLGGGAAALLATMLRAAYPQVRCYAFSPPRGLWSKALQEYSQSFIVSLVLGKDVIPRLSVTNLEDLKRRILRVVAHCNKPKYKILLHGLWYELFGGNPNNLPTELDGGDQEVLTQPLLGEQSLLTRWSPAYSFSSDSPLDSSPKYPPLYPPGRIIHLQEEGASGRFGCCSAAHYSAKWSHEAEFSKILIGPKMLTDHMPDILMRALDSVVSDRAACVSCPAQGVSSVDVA
UniProt Q8TB03: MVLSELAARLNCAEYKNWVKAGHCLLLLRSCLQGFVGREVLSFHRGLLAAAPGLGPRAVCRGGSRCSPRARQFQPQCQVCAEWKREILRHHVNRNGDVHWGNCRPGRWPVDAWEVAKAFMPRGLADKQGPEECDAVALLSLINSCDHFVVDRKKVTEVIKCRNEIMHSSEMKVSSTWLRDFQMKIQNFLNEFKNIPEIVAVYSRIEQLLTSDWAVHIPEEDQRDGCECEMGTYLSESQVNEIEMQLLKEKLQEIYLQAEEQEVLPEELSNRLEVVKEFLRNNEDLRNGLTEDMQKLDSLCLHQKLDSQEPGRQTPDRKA
UniProt P21291: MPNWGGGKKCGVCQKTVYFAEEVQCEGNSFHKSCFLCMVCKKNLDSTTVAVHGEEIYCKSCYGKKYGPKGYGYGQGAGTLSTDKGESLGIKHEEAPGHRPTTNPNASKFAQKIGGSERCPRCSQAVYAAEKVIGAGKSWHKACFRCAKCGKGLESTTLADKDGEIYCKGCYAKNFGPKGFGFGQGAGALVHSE
UniProt Q93034, whole entry, looked up: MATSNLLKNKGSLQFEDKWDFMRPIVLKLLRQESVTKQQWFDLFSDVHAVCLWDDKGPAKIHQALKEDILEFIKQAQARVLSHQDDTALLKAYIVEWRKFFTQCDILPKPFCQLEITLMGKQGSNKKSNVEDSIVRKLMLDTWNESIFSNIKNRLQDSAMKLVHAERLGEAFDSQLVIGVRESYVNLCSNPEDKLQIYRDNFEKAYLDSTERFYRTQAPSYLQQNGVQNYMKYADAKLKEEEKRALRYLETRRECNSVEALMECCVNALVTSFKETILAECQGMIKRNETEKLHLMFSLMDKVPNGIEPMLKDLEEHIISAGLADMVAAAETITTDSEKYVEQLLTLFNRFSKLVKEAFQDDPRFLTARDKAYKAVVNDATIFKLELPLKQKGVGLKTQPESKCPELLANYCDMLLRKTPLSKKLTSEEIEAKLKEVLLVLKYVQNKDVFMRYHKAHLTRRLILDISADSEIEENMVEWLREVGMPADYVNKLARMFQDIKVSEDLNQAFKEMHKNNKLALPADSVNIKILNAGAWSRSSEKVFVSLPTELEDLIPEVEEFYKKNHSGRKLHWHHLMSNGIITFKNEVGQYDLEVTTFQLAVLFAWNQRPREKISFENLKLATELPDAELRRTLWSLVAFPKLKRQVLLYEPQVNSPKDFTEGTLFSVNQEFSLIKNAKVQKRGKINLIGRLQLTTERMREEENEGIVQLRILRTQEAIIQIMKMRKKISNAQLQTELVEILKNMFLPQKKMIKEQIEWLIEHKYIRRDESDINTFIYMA
UniProt P01034: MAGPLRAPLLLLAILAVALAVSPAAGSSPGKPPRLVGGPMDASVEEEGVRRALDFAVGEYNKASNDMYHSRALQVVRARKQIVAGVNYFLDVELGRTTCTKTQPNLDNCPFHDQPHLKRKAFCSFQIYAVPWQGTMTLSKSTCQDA
UniProt P99999: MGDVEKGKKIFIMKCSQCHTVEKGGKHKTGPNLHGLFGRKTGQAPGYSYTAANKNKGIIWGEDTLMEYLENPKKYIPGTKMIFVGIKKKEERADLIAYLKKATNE
UniProt Q1MSJ5: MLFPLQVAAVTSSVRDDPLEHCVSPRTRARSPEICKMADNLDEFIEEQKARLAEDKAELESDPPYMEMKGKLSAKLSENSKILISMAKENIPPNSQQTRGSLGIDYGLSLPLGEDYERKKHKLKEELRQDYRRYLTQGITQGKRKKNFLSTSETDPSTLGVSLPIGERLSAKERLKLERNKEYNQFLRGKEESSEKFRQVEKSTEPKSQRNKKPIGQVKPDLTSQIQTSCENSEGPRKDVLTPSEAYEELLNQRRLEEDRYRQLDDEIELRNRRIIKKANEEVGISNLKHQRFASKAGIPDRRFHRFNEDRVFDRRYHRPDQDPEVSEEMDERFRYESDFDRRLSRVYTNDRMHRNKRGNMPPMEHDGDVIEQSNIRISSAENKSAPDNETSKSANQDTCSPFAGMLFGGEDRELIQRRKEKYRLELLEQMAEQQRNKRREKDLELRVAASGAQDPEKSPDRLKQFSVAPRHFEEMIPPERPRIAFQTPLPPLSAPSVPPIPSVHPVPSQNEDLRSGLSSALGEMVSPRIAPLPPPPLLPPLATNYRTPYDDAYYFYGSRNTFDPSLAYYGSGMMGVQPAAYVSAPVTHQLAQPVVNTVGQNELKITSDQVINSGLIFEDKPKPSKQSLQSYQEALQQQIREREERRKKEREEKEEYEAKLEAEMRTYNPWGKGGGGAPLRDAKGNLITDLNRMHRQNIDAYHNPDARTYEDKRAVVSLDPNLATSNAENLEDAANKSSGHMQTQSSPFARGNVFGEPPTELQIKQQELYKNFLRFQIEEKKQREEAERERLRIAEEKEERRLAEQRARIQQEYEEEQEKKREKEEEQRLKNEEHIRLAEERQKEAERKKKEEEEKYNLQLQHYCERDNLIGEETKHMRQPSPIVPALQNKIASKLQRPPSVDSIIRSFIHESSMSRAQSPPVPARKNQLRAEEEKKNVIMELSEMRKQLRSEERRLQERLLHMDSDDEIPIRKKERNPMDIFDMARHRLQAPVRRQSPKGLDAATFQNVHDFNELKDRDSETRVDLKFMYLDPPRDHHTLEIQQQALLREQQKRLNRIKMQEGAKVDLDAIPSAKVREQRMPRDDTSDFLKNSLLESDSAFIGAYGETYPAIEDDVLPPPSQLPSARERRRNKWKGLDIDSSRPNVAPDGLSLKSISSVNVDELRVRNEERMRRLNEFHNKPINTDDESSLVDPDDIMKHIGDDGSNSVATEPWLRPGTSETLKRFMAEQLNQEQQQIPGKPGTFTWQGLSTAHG
UniProt P17812: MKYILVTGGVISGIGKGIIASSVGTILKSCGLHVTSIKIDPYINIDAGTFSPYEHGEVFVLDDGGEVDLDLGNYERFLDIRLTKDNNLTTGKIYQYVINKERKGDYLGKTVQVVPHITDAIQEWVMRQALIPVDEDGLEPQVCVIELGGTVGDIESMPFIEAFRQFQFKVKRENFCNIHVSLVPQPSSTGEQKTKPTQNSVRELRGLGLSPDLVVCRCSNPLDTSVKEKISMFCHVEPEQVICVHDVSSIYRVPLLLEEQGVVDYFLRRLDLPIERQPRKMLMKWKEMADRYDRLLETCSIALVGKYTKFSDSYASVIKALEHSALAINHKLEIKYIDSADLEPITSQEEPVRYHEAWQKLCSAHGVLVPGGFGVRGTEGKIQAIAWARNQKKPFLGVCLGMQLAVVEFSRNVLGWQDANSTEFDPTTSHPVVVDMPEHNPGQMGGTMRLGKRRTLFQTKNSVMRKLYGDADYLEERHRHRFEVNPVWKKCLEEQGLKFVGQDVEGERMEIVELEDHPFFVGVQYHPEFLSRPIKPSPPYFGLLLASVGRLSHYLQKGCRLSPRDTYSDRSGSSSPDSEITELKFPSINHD
UniProt Q9BTE1, whole entry, looked up: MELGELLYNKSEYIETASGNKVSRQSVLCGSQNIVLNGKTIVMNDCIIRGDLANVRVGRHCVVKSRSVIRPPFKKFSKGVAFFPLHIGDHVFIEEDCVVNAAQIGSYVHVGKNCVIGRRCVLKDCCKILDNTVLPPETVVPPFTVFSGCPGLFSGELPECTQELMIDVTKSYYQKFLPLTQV
UniProt P0DMU8: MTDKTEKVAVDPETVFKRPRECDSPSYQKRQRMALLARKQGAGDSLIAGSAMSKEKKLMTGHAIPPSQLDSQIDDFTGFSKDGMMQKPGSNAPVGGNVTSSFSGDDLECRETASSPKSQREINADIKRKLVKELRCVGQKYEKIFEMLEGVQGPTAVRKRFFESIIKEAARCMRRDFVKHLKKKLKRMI
UniProt Q14247: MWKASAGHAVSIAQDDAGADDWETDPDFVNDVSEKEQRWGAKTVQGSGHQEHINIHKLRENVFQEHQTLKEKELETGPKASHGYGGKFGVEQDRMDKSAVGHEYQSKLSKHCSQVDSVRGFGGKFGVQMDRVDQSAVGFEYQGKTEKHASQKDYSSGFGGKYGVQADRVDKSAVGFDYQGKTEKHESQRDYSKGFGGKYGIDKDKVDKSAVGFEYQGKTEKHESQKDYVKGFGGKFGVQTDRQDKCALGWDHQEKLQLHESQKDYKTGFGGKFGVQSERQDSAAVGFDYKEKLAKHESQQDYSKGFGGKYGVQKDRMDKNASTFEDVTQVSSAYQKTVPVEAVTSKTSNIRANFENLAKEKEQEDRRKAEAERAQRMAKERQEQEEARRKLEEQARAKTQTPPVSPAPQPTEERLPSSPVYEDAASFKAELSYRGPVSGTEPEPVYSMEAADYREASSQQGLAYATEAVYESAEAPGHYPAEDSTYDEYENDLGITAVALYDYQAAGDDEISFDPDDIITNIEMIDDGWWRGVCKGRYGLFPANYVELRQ
UniProt P49711: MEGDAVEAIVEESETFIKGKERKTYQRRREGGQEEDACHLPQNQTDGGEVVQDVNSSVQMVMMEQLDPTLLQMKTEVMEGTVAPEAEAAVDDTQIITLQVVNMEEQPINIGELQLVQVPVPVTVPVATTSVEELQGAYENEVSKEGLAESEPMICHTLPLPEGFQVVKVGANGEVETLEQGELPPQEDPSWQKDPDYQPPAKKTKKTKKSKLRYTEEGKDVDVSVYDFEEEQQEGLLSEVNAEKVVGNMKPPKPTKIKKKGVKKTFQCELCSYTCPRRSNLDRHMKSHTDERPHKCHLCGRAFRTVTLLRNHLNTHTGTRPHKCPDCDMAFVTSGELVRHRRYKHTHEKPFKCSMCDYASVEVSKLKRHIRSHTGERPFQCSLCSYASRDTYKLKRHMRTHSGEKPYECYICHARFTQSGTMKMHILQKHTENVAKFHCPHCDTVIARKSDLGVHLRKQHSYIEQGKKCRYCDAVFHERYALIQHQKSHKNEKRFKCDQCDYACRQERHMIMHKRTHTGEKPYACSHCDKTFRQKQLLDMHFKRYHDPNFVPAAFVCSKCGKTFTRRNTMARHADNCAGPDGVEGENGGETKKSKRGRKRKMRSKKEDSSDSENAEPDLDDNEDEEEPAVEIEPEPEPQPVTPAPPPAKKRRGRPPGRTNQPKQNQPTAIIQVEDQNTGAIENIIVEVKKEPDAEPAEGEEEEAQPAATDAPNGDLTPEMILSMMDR

Assays:
Experiment in all cases: log2 fold change, soluble protein after heating vs DMSO (PISA); higher = thermal stabilisation; K562 cells, 10 uM, 30 min; active = over 0.2 and 3.5 SD of the protein, either way, in both replicates (recomputed)
saracatinib = compound: CN1CCN(CCOc2cc(OC3CCOCC3)c3c(Nc4c(Cl)ccc5c4OCO5)ncnc3c2)CC1 [saracatinib]
How it was run: (§1)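 Values are thermal stability changes relative to control samples and are taken from duplicates. They are stated as log2 fold changes. Before quantification by TMTpro 16plex LC-MS/MS with equalised channel sums, K562 cells at 2×10^6 cells/mL were treated with 10 μM compound for 30 min, heated in aliquots for 3 min across 48°C-58°C, pooled, extracted in PBS with 0.5% NP-40 at 4°C, and centrifuged at 21,000xg for 90 min to give the soluble supernatant.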

sotrastaurin = compound: CN1CCN(c2nc(C3=C(c4c[nH]c5ccccc45)C(=O)NC3=O)c3ccccc3n2)CC1 [sotrastaurin]
How it was run: as §1

alvocidib = compound: CN1CC[C@H](c2c(O)cc(O)c3c(=O)cc(-c4ccccc4Cl)oc23)[C@H](O)C1 [alvocidib]
How it was run: as §1

Tubastatin A = compound: CN1CCc2c(c3ccccc3n2Cc2ccc(C(=O)NO)cc2)C1 [Tubastatin A]
How it was run: as §1

[1] = compound: CNC(=O)C1=CC=CC=C1NC2=NC(=NC=C2Cl)NC3=C(C=C(C=C3)N4CCOCC4)OC
How it was run: as §1

defactinib = compound: CNC(=O)c1ccc(Nc2ncc(C(F)(F)F)c(NCc3nccnc3N(C)S(C)(=O)=O)n2)cc1 [defactinib]
How it was run: as §1

rucaparib = compound: CNCc1ccc(-c2[nH]c3cc(F)cc4c3c2CCNC4=O)cc1 [rucaparib]
How it was run: as §1

[2] = compound: CNc1nc(-c2ccc3c(N)n[nH]c3c2)cc(N2C[C@@H](C(=O)NC3CCCCC3)CC[C@H]2C)n1
How it was run: as §1

encorafenib = compound: COC(=O)N[C@@H](C)CNc1nccc(-c2cn(C(C)C)nc2-c2cc(Cl)cc(NS(C)(=O)=O)c2F)n1 [encorafenib]
How it was run: as §1

[3] = compound: COC(=O)[C@H](CCSC)NC(=O)C1=C(C=C(C=C1)NC[C@H](CS)N)C2=CC=CC=C2
How it was run: as §1

[4] = compound: COC1=CC=C(C=C1)CN2C=CC3=C2C=C(C=C3)C(=O)NO
How it was run: as §1

filanesib = compound: CON(C)C(=O)N1N=C(c2cc(F)ccc2F)S[C@@]1(CCCN)c1ccccc1 [filanesib]
How it was run: as §1

zotarolimus = compound: CO[C@H]1C[C@@H]2CC[C@@H](C)[C@@](O)(O2)C(=O)C(=O)N2CCCC[C@H]2C(=O)O[C@H]([C@H](C)C[C@@H]2CC[C@H](n3cnnn3)[C@H](OC)C2)CC(=O)[C@H](C)/C=C(\C)[C@@H](O)[C@@H](OC)C(=O)[C@H](C)C[C@H](C)/C=C/C=C/C=C/1C [zotarolimus]
How it was run: as §1

idasanutlin = compound: COc1cc(C(=O)O)ccc1NC(=O)[C@@H]1N[C@@H](CC(C)(C)C)[C@](C#N)(c2ccc(Cl)cc2F)[C@H]1c1cccc(Cl)c1F [idasanutlin]
How it was run: as §1

alisertib = compound: COc1cc(Nc2ncc3c(n2)-c2ccc(Cl)cc2C(c2c(F)cccc2OC)=NC3)ccc1C(=O)O [alisertib]
How it was run: as §1

[5] = compound: COc1cc2nc(-c3cc(F)ccc3O)nc(N[C@@H]3CNC[C@H]3C(C)(C)O)c2cc1OC
How it was run: as §1

gefitinib = compound: COc1cc2ncnc(Nc3ccc(F)c(Cl)c3)c2cc1OCCCN1CCOCC1 [gefitinib]
How it was run: as §1

[6] = compound: COc1cccc2cc(-c3nc([C@H]4CC[C@H](C(=O)O)CC4)n4ncnc(N)c34)[nH]c12
How it was run: as §1

lapatinib = compound: CS(=O)(=O)CCNCc1ccc(-c2ccc3ncnc(Nc4ccc(OCc5cccc(F)c5)c(Cl)c4)c3c2)o1 [lapatinib]
How it was run: as §1

pictilisib = compound: CS(=O)(=O)N1CCN(Cc2cc3nc(-c4cccc5[nH]ncc45)nc(N4CCOCC4)c3s2)CC1 [pictilisib]
How it was run: as §1

Measured: log2 fold change

DCAKD (UniProt Q8WVC6)
inactive: saracatinib -0.065 | sotrastaurin -0.047 | alvocidib -0.091 | Tubastatin A 0.001 | [1] -0.037 | defactinib -0.026 | rucaparib 0.025 | [2] 0.074 | encorafenib 0.042 | [3] -0.031 | [4] -0.26 | filanesib -0.111 | zotarolimus 0.002 | idasanutlin 0.008 | alisertib -0.035 | [5] -0.122 | gefitinib 0.112 | [6] 0.035 | lapatinib 0.049 | pictilisib 0.004

CYP20A1 (UniProt Q6UW02)
inactive: saracatinib 0.017 | sotrastaurin 0.042 | alvocidib -0.034 | Tubastatin A -0.016 | [1] -0.008 | defactinib -0.029 | rucaparib -0.174 | [2] -0.04 | encorafenib 0.011 | [3] 0.019 | [4] -0.041 | filanesib -0.069 | zotarolimus 0.013 | idasanutlin -0.109 | alisertib -0.045 | [5] 0.002 | gefitinib 0.008 | [6] 0.056 | lapatinib -0.013 | pictilisib -0.009

DAGLB (UniProt Q8NCG7)
inactive: saracatinib -0.028 | sotrastaurin 0.026 | alvocidib -0.07 | Tubastatin A 0.072 | [1] 0.019 | defactinib -0.041 | rucaparib 0.01 | [2] -0.046 | encorafenib -0.019 | [3] 0.02 | [4] -0.06 | filanesib -0.023 | zotarolimus -0.013 | idasanutlin -0.056 | alisertib 0.007 | [5] 0.045 | gefitinib 0.025 | [6] 0.081 | lapatinib -0.03 | pictilisib 0.033

CXorf38 (UniProt Q8TB03)
inactive: saracatinib -0.009 | sotrastaurin 0 | alvocidib -0.081 | Tubastatin A -0.02 | [1] 0.06 | defactinib -0.045 | rucaparib 0.011 | [2] -0.065 | encorafenib -0.004 | [3] 0.036 | [4] 0.012 | filanesib -0.034 | zotarolimus -0.024 | idasanutlin -0.015 | alisertib 0 | [5] 0.085 | gefitinib 0.08 | [6] 0.017 | lapatinib 0.004 | pictilisib 0.026

CSRP1 (UniProt P21291)
inactive: saracatinib 0.047 | sotrastaurin 0.036 | alvocidib -0.006 | Tubastatin A -0.055 | [1] -0.042 | defactinib 0.007 | rucaparib -0.038 | [2] -0.031 | encorafenib -0.033 | [3] 0.014 | [4] 0.09 | filanesib -0.027 | zotarolimus -0.002 | idasanutlin 0.027 | alisertib -0.035 | [5] -0.019 | gefitinib 0.017 | [6] 0.01 | lapatinib -0.007 | pictilisib -0.02

CUL5 (UniProt Q93034)
inactive: saracatinib 0.04 | sotrastaurin 0.025 | alvocidib -0.029 | Tubastatin A -0.033 | [1] -0.02 | defactinib -0.028 | rucaparib -0.044 | [2] -0.035 | encorafenib -0.003 | [3] -0.011 | [4] -0.014 | filanesib -0.069 | zotarolimus -0.014 | idasanutlin -0.069 | alisertib -0.021 | [5] 0.024 | gefitinib 0.01 | [6] 0.056 | lapatinib -0.01 | pictilisib 0.043

CST3 (UniProt P01034)
inactive: saracatinib 0.094 | sotrastaurin 0.008 | alvocidib -0.028 | Tubastatin A -0.006 | [1] 0.147 | defactinib -0.007 | rucaparib -0.005 | [2] 0.024 | encorafenib -0.063 | [3] 0.061 | [4] -0.003 | filanesib 0.103 | zotarolimus 0.01 | idasanutlin -0.015 | alisertib -0.021 | [5] 0.069 | gefitinib 0.094 | [6] 0.022 | lapatinib -0.006 | pictilisib 0.103

CYCS (UniProt P99999)
inactive: saracatinib 0.016 | sotrastaurin 0.049 | alvocidib 0.002 | Tubastatin A -0.053 | [1] -0.021 | defactinib -0.019 | rucaparib -0.026 | [2] -0.029 | encorafenib -0.031 | [3] 0.019 | [4] -0.01 | filanesib -0.045 | zotarolimus -0.011 | idasanutlin 0.009 | alisertib -0.051 | [5] 0.011 | gefitinib 0.092 | [6] 0.065 | lapatinib -0.046 | pictilisib 0.024

CSPP1 (UniProt Q1MSJ5)
inactive: saracatinib 0 | sotrastaurin 0.015 | alvocidib -0.036 | Tubastatin A 0.006 | [1] -0.029 | defactinib 0.01 | rucaparib -0.073 | [2] -0.165 | encorafenib 0.011 | [3] -0.042 | [4] -0.028 | filanesib -0.004 | zotarolimus -0.067 | idasanutlin -0.061 | alisertib 0.095 | [5] 0.05 | gefitinib -0.032 | [6] 0.057 | lapatinib -0.017 | pictilisib 0.019

CTPS1 (UniProt P17812)
inactive: saracatinib 0.027 | sotrastaurin 0.031 | alvocidib -0.014 | Tubastatin A -0.048 | [1] -0.046 | defactinib -0.013 | rucaparib -0.032 | [2] -0.026 | encorafenib -0.026 | [3] 0.02 | [4] -0.017 | filanesib -0.063 | zotarolimus -0.013 | idasanutlin -0.043 | alisertib -0.053 | [5] 0.019 | gefitinib -0.001 | [6] 0.017 | lapatinib 0.001 | pictilisib 0.029

Two entries picked at random from the list so far:
CUL5 (UniProt Q93034)
inactive: saracatinib 0.04 | sotrastaurin 0.025 | alvocidib -0.029 | Tubastatin A -0.033 | [1] -0.02 | defactinib -0.028 | rucaparib -0.044 | [2] -0.035 | encorafenib -0.003 | [3] -0.011 | [4] -0.014 | filanesib -0.069 | zotarolimus -0.014 | idasanutlin -0.069 | alisertib -0.021 | [5] 0.024 | gefitinib 0.01 | [6] 0.056 | lapatinib -0.01 | pictilisib 0.043

CST3 (UniProt P01034)
inactive: saracatinib 0.094 | sotrastaurin 0.008 | alvocidib -0.028 | Tubastatin A -0.006 | [1] 0.147 | defactinib -0.007 | rucaparib -0.005 | [2] 0.024 | encorafenib -0.063 | [3] 0.061 | [4] -0.003 | filanesib 0.103 | zotarolimus 0.01 | idasanutlin -0.015 | alisertib -0.021 | [5] 0.069 | gefitinib 0.094 | [6] 0.022 | lapatinib -0.006 | pictilisib 0.103

Continued.

DCTN5 (UniProt Q9BTE1)
inactive: saracatinib 0.015 | sotrastaurin -0.008 | alvocidib 0.035 | Tubastatin A 0.018 | [1] -0.006 | defactinib 0.034 | rucaparib 0.031 | [2] -0.035 | encorafenib -0.115 | [3] 0.017 | [4] -0.098 | filanesib 0 | zotarolimus 0.032 | idasanutlin 0.008 | alisertib -0.018 | [5] 0.002 | gefitinib -0.012 | [6] 0.038 | lapatinib 0.003 | pictilisib 0.008

CYB5R2 (UniProt Q6BCY4)
inactive: saracatinib 0.041 | sotrastaurin 0.062 | alvocidib 0.015 | Tubastatin A -0.018 | [1] -0.061 | defactinib -0.035 | rucaparib -0.035 | [2] -0.086 | encorafenib -0.018 | [3] -0.01 | [4] 0.005 | filanesib 0 | zotarolimus -0.043 | idasanutlin 0.006 | alisertib -0.104 | [5] 0.083 | gefitinib -0.002 | [6] 0.035 | lapatinib 0.037 | pictilisib 0.031

DAP3 (UniProt P51398)
inactive: saracatinib -0.034 | sotrastaurin -0.103 | alvocidib 0 | Tubastatin A 0.021 | [1] -0.015 | defactinib 0.04 | rucaparib 0.094 | [2] 0.108 | encorafenib 0.018 | [3] -0.034 | [4] 0 | filanesib 0.049 | zotarolimus 0.076 | idasanutlin -0.141 | alisertib -0.112 | [5] -0.105 | gefitinib -0.002 | [6] 0 | lapatinib 0.084 | pictilisib -0.138

CT45A5 (UniProt P0DMU8)
inactive: saracatinib -0.034 | sotrastaurin -0.035 | alvocidib 0.131 | Tubastatin A 0.016 | [1] 0.029 | defactinib 0.264 | rucaparib 0.117 | [2] 0.043 | encorafenib 0.085 | [3] 0.001 | [4] -0.054 | filanesib 0.225 | zotarolimus 0.032 | idasanutlin 0.133 | alisertib -0.048 | [5] -0.102 | gefitinib -0.06 | [6] -0.091 | lapatinib 0.095 | pictilisib -0.137

CTTN (UniProt Q14247)
inactive: saracatinib 0.009 | sotrastaurin 0.015 | alvocidib -0.002 | Tubastatin A -0.021 | [1] 0.011 | defactinib -0.001 | rucaparib -0.034 | [2] -0.09 | encorafenib -0.02 | [3] 0.023 | [4] -0.014 | filanesib -0.006 | zotarolimus 0.007 | idasanutlin -0.013 | alisertib -0.036 | [5] 0.076 | gefitinib -0.008 | [6] 0.064 | lapatinib -0.035 | pictilisib 0.026

CTCF (UniProt P49711)
inactive: saracatinib -0.089 | sotrastaurin -0.115 | alvocidib 0.232 | Tubastatin A -0.133 | [1] -0.03 | defactinib 0.243 | rucaparib 0.255 | [2] 0.012 | encorafenib 0.05 | [3] 0.011 | [4] -0.029 | filanesib 0.258 | zotarolimus -0.072 | idasanutlin 0.276 | alisertib -0.132 | [5] -0.088 | gefitinib -0.077 | [6] -0.127 | lapatinib 0.114 | pictilisib -0.013
